Experimental data: US20130237484A1
Results are given in words; binding and its absence hold for the method and conditions named. Some results given as binding are weak or reduced against the parent protein; the word gives no strength.

The chains behind the UniProt entries cited, without tags or fusion partners.
UniProt Q9HCE7: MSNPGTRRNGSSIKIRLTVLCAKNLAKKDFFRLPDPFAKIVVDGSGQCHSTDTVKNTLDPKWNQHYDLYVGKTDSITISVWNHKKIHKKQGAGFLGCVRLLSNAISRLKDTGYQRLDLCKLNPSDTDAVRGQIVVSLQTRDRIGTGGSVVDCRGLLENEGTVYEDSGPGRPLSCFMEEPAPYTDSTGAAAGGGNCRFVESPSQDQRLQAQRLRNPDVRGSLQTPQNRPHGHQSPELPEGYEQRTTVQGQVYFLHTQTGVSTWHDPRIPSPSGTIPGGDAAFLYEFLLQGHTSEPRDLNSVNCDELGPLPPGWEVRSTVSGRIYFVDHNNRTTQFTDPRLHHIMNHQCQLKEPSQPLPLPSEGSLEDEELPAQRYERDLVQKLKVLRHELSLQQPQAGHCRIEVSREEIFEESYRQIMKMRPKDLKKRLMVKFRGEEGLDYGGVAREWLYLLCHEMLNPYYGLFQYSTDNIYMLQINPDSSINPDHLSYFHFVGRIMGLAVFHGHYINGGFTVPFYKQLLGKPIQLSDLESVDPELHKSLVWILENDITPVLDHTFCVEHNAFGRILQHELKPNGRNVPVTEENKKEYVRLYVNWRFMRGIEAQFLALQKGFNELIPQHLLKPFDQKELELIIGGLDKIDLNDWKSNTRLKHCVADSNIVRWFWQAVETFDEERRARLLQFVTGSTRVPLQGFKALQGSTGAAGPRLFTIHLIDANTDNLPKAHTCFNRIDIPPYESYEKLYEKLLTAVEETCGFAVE

Key:
[1] = biological target: human-derived Smurf1 protein (human) (UniProt Q9HCE7); experiment: slot blot, Smurf1 on nitrocellulose, biotinylated peptide at 0.1 to 100 mM as printed, Extravidin/ECL detection; dot size increased from 0.1 mM to 100 mM
[2] = biological target: human-derived Smurf1 protein (human) (UniProt Q9HCE7); experiment: slot blot, Smurf1 on nitrocellulose, biotinylated peptide at 0.1 to 100 mM as printed, Extravidin/ECL detection; increase of dot size began at 10 mM

Row | Binder | binding [1] | binding [2]
1 | GAPPPADSAP [bone differentiation inducing sequence (…) derived from LMP1, Comparative Example 2] | binds | –
2 | GAPPPADSAPSSRKKNPNCRRH (C-terminal amide (printed as -COONH2; synthesized on Rink resin)) | – | binds
